Data on 1 molecule can be found in paper doi:10.1101/2025.08.26.672501.

Chains of the proteins cited; added tags and fusions are not shown. Lines headed by an entry give the natural chain unless they say otherwise; changes in a name come on top.
UniProt Q96N66: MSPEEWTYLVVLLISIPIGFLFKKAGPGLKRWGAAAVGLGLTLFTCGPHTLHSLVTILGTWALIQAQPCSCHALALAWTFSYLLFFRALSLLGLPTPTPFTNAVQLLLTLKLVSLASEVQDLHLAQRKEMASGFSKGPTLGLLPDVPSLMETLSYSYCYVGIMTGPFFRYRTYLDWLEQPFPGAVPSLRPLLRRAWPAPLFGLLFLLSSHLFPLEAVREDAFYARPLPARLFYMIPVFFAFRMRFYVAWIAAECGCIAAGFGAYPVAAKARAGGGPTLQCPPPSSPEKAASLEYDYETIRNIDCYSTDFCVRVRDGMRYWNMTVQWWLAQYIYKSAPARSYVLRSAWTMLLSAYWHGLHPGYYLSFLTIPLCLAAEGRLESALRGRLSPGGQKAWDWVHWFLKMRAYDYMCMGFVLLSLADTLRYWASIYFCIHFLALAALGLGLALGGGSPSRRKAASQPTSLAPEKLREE

The target in the experiment is MBOAT7-His (human) (UniProt Q96N66). Briefly: pull-down.

No constants are given. Whether binding was seen depends on the method and setting. Binding can be weak; no strength is given. Tags and fused reporters may be left off the sequences shown.

B1: Flag-CDS2 (protein, UniProt O95674 1-445)
chain: MTELRQRVAHEPVAPPEDKESESEAKVDGETASDSESRAESAPLPVSADDTPEVLNRALSNLSSRWKNWWVRGILTLAMIAFFFIIIYLGPMVLMIIVMCVQIKCFHEIITIGYNVYHSYDLPWFRTLSWYFLLCVNYFFYGETVTDYFFTLVQREEPLRILSKYHRFISFTLYLIGFCMFVLSLVKKHYRLQFYMFGWTHVTLLIVVTQSHLVIHNLFEGMIWFIVPISCVICNDIMAYMFGFFFGRTPLIKLSPKKTWEGFIGGFFATVVFGLLLSYVMSGYRCFVCPVEYNNDTNSFTVDCEPSDLFRLQEYNIPGVIQSVIGWKTVRMYPFQIHSIALSTFASLIGPFGGFFASGFKRAFKIKDFANTIPGHGGIMDRFDCQYLMATFVNVYIASFIRGPNPSKLIQQFLTLRPDQQLHIFNTLRSHLIDKGMLTSTTEDE
Consider B1, for which the binding result is “binds”.
